Values from PubChem BioAssay AID1259308 (NCATS, 2017).
Screen: 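Genes whose loss raises luciferase production in HEK293 cells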 (primary screen). Cells: human HEK293 embryonic kidney cells stably expressing firefly luciferase (HEK-CMV-Luc2-Hygro). Reagent: single siRNA against human genes, 0.8 pmol siRNA per well. Duration: 72 h. Measurement: 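Reporter luminescence and viable-cell signal on separate replicate plates, given as percent of non-targeting control and median/MAD z-scores, plus per-cell luciferase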. Direction: total luciferase, z-score: higher = more reporter protein produced. Call rule: 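An siRNA counts as active if its total luciferase robust z-score exceeds 3; genes with two or more such siRNAs out of three were retested with fresh siRNAs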. Calls: active = raised luciferase; inactive = no rise.
Shown is a random part of about 59,000 reagents. In the full data, about 1,510 (2.6%) are marked active. 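Calls use total luciferase alone and ignore viability, so some active siRNAs may act by altering cell number.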 The numbers tell different reagents against one gene apart. Further read-outs or replicates are left out here.

Knock-down of PPP1R1A #1 came out at: total luciferase, z-score 0.97; inactive.
After knock-down of PPP1R1A #2 the results were total luciferase, z-score 0.155; inactive.
With knock-down of PPP1R1A #3, the screen gave total luciferase, z-score 1.84; inactive.
Knock-down of KIF21B #1 came out at: total luciferase, z-score -0.0163; inactive.
KIF21B #2 showed total luciferase, z-score 0.0963; inactive.
Depletion of KIF21B #3 came out at: total luciferase, z-score -0.0115; inactive.
FREM2 #1 scored total luciferase, z-score -0.66; inactive.
With knock-down of FREM2 #2, the screen gave total luciferase, z-score -0.506; inactive.
FREM2 #3 gave total luciferase, z-score -0.447; inactive.
UQCRB #1 gave total luciferase, z-score 0.0366; inactive.
Depletion of UQCRB #2 came out at: total luciferase, z-score -0.552; inactive.
UQCRB #3 gave total luciferase, z-score -1.64; inactive.

2 entries already listed, sorted by “total luciferase, z-score”, ascending.
FREM2 #1 | total luciferase, z-score = -0.66; activity call = inactive
FREM2 #2 | total luciferase, z-score = -0.506; activity call = inactive

The results go on:
For ETV1 #1 the deposit lists total luciferase, z-score -0.762; inactive.
Against ETV1 #2 the deposit lists total luciferase, z-score 3.91; active.
For ETV1 #3, the values are total luciferase, z-score 0.771; inactive.
With knock-down of ZCCHC14 #1 the results were total luciferase, z-score -0.0606; inactive.
Depletion of ZCCHC14 #2 came out at: total luciferase, z-score 0.326; inactive.
ZCCHC14 #3 showed total luciferase, z-score -0.873; inactive.
LILRB5 #1 showed total luciferase, z-score -0.0387; inactive.
With knock-down of LILRB5 #2, the record shows total luciferase, z-score 0.846; inactive.
LILRB5 #3 showed total luciferase, z-score -0.685; inactive.
